In publication doi:10.1101/2022.04.29.490031:
No constants are given. Whether binding was seen depends on the method and setting. For some of these results: Binding seen in cells or lysates may run through a third protein. Some results given as binding are weak or reduced against the parent protein; the word gives no strength. For some of these results: Tags and fused reporters may be left off the sequences shown.

How the values were obtained:
[1] = molecular target: T1, SPTLC1, endogenous (human (endogenous in Flp-In T-REx 293)) (UniProt O15269); assay: native gel or EMSA
T1 sequence: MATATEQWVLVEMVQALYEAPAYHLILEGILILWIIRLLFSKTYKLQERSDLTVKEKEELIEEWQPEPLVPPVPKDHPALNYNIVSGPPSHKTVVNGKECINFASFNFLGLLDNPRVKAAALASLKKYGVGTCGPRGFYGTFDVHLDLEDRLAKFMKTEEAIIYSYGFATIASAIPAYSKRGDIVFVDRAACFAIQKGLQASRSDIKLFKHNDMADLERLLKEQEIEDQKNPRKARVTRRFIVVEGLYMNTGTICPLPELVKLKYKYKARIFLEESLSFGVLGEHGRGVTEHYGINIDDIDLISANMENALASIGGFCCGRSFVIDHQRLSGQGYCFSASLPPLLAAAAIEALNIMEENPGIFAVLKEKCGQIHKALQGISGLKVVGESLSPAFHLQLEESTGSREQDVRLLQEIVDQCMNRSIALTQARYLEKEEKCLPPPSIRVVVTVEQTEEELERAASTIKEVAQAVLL

[2] = molecular target: SPTLC1^FLAG C133W (HSAN1 variant) (UniProt O15269); assay: native gel or EMSA
[3] = molecular target: T2, SPTLC1^FLAG F40S41del (ALS variant) (UniProt O15269); assay: native gel or EMSA
T2 sequence: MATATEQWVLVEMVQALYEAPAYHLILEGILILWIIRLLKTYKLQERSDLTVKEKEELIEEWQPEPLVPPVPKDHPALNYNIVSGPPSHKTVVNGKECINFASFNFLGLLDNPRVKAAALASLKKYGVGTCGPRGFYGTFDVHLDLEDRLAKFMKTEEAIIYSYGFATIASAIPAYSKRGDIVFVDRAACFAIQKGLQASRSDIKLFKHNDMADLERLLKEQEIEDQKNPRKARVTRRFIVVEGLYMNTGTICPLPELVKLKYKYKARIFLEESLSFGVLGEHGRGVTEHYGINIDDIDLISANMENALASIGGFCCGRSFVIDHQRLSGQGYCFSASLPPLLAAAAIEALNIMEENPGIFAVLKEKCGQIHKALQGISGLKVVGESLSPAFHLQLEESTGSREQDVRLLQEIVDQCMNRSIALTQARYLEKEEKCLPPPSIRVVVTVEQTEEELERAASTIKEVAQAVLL

[4] = molecular target: T3, SPTLC1^FLAG L39del (ALS variant) (UniProt O15269); assay: native gel or EMSA
T3 sequence: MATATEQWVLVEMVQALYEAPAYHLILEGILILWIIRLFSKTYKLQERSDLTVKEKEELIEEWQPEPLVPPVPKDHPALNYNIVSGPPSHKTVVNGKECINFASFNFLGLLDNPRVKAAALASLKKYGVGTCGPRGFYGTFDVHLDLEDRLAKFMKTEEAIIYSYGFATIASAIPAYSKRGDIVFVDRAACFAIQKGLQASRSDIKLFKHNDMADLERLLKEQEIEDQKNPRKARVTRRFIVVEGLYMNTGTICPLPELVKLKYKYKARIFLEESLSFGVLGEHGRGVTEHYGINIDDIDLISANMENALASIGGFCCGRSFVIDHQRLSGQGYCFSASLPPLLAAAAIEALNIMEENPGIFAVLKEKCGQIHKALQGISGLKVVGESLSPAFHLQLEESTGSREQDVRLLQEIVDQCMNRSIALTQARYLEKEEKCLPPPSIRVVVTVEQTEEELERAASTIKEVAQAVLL

[5] = molecular target: SPTLC1^FLAG S331F (HSAN1 variant) (UniProt O15269); assay: native gel or EMSA
[6] = molecular target: SPTLC1^FLAG Y23F (ALS variant) (UniProt O15269); assay: native gel or EMSA
[7] = molecular target: T4, WT-SPTLC1^FLAG (serine-palmitoyltransferase subunit 1, wild type, C-terminal triple FLAG-tag) (UniProt O15269); assay: native gel or EMSA
T4 sequence: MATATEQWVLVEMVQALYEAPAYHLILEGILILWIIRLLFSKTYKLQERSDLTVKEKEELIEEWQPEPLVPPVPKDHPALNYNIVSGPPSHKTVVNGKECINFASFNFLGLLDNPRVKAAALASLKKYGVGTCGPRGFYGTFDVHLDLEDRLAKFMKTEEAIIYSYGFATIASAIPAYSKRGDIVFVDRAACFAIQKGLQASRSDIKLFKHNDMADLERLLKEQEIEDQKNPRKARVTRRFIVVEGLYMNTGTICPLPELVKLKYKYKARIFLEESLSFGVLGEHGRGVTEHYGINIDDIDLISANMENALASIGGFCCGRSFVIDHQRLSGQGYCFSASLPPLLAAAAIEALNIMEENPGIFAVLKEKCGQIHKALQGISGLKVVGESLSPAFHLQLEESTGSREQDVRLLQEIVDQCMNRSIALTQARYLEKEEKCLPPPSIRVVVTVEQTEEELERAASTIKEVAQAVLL

[8] = molecular target: SPTLC1^FLAG C133W (HSAN1 variant) (UniProt O15269); assay: co-IP
[9] = molecular target: T2, SPTLC1^FLAG F40S41del (ALS variant); assay: co-IP
[10] = molecular target: T3, SPTLC1^FLAG L39del (ALS variant); assay: co-IP
[11] = molecular target: SPTLC1^FLAG S331F (HSAN1 variant) (UniProt O15269); assay: co-IP
[12] = molecular target: SPTLC1^FLAG Y23F (ALS variant) (UniProt O15269); assay: co-IP
[13] = molecular target: T4, WT-SPTLC1^FLAG (serine-palmitoyltransferase subunit 1, wild type, C-terminal triple FLAG-tag); assay: co-IP

Measured: binding

B1: SPTLC2 (serine-palmitoyltransferase subunit 2) (protein, UniProt O15270 1-562)
chain: MRPEPGGCCCRRTVRANGCVANGEVRNGYVRSSAAAAAAAAAGQIHHVTQNGGLYKRPFNEAFEETPMLVAVLTYVGYGVLTLFGYLRDFLRYWRIEKCHHATEREEQKDFVSLYQDFENFYTRNLYMRIRDNWNRPICSVPGARVDIMERQSHDYNWSFKYTGNIIKGVINMGSYNYLGFARNTGSCQEAAAKVLEEYGAGVCSTRQEIGNLDKHEELEELVARFLGVEAAMAYGMGFATNSMNIPALVGKGCLILSDELNHASLVLGARLSGATIRIFKHNNMQSLEKLLKDAIVYGQPRTRRPWKKILILVEGIYSMEGSIVRLPEVIALKKKYKAYLYLDEAHSIGALGPTGRGVVEYFGLDPEDVDVMMGTFTKSFGASGGYIGGKKELIDYLRTHSHSAVYATSLSPPVVEQIITSMKCIMGQDGTSLGKECVQQLAENTRYFRRRLKEMGFIIYGNEDSPVVPLMLYMPAKIGAFGREMLKRNIGVVVVGFPATPIIESRARFCLSAAHTKEILDTALKEIDEVGDLLQLKYSRHRLVPLLDRPFDETTYEETED
binds: all assays above
